Some of the results follow. The main result of the screen is listed elsewhere. These columns were measured beside it and carry no call. Compounds called inactive in the main read-out are mostly missing here. Words in brackets tell the shape of the fitted curve; partial curves, single points and poor fits give uncertain potencies.
Experiment: qHTS Assay for Lipid Storage Modulators in Drosophila S3 Cells;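 for cell number change: cells counted by Cell Tracker Red CMTPX staining in the red channel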
Settings: BODIPY lipid droplet fluorescence, 18-24 h; for cell number change: measured here: cell count max response, cells fed with added oleic acid
Method in brief: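 Drosophila S3 cells loaded with oleic acid (400 uM, as added) and compounds at several concentrations; lipid droplets imaged by 488-nm laser-scanning cytometry, 500–530 nm intensity and object ratio to cell channel. Percent activity normalized to 20 uM Triacsin C.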

[1] = measured here: cell number channel AC50, cells fed with added oleic acid
[2] = measured here: lipid fluorescence (Fed channel) AC50, cells fed with added oleic acid

Row | Structure (SMILES) | AC50 [1] | AC50 [2] | cell number change [%]
1 | O=C1CN(C(=O)COC(=O)c2ccccc2NCc2ccco2)c2ccccc2N1 | 1.84 µM [rising, partial curve] | – | –
2 | Cc1cc(N)n(-c2ccccc2C)n1 | 0.00651 µM [rising, full curve, poor fit] | 0.116 µM [rising, single point] | –
3 | O=C(N/N=C\c1cccnc1)c1ccc(Cl)s1 | – | – | 20.9
4 | CC1(C)CC(=O)C/C(=N\NC(=O)CCc2ccc(S(=O)(=O)N3CCOCC3)cc2)C1 | 0.00461 µM [falling, full curve, poor fit] | – | 0.82
5 | CN(C)NC(=O)c1ccsc1NC(=O)c1ccc(S(=O)(=O)N2CCCC2)cc1 | – | – | -19
6 | CS(=O)(=O)N1CCC(c2noc(-c3ccc(C(F)(F)F)cc3)n2)CC1 | 8.2 µM [falling, partial curve, poor fit] | 29.1 µM [falling, single point] | -32.2
7 | Nn1c(SCC(=O)Nc2ccc(S(=O)(=O)N3CCCC3)cc2)nnc1C(F)(F)F | 29.1 µM [rising, single point] | 29.1 µM [rising, single point] | 62.4
8 | O=C(NC(CO)c1ccccc1)c1ccco1 (configuration not stated) | – | 29.1 µM [falling, single point] | 13.4
9 | CCOc1ccc(-n2cc(C(=O)N3CCC(C)CC3)c3cc(OC)c(OC)cc3c2=O)cc1 | 1.64 µM [rising, full curve] | 0.651 µM [rising, full curve, poor fit] | 36.8
10 | CC1(C)CC2CC(C)(CN2S(=O)(=O)c2ccc(N)cc2)C1 (configuration not stated) | – | 0.164 µM [falling, full curve, poor fit] | 4.45
11 | COc1ccc(S(=O)(=O)N2CCOCC2)cc1NC(=O)CSc1nnnn1C1CC1 | 7.31 µM [falling, partial curve, poor fit] | 16.4 µM [falling, partial curve] | -46.1
12 | COc1ccc(N(Cc2cc3ccccc3[nH]c2=O)C(=O)C2CCCO2)cc1 (configuration not stated) | – | 29.1 µM [rising, partial curve, poor fit] | 6.26
13 | CC(C)n1c(SCC(=O)Nc2ccc3c(c2)OCO3)nc2c1c(=O)n(C)c(=O)n2C | – | 1.46 µM [rising, full curve] | 1.7
14 | Cc1ccc(C(=O)Nc2ccccc2Cl)cc1 | 0.291 µM [rising, partial curve, poor fit] | 0.58 µM [rising, single point] | 4.01
15 | NC(=O)N/N=C/c1ccc2cccc(OCc3ccccc3)c2n1 | 2.91 µM [rising, partial curve, poor fit] | 0.103 µM [rising, partial curve, poor fit] | 27.3
16 | Cc1cccc2cc(CN(Cc3cccs3)Cc3nnnn3Cc3ccccc3)c(=O)[nH]c12 | – | – | 4.39
17 | Cc1cccc(C(=O)NC(=S)Nc2ccc(Cc3ccncc3)cc2)c1 | – | 18.4 µM [falling, single point] | -6.69
18 | O=C(NS(=O)(=O)Oc1cccc(F)c1)OC[C@@H]1CCCN2CCCCC12 (some centres not stated) | – | – | -10.4
19 | CCOc1ccc(N(CC(=O)NC2CCCC2)C(=O)CCC(=O)Nc2nccs2)cc1 | – | – | -2.63

From compound 14 as far as 16, copied from above:
Row | Structure (SMILES) | AC50 [1] | AC50 [2] | cell number change [%]
14 | Cc1ccc(C(=O)Nc2ccccc2Cl)cc1 | 0.291 µM [rising, partial curve, poor fit] | 0.58 µM [rising, single point] | 4.01
15 | NC(=O)N/N=C/c1ccc2cccc(OCc3ccccc3)c2n1 | 2.91 µM [rising, partial curve, poor fit] | 0.103 µM [rising, partial curve, poor fit] | 27.3
16 | Cc1cccc2cc(CN(Cc3cccs3)Cc3nnnn3Cc3ccccc3)c(=O)[nH]c12 | – | – | 4.39

(continued)

Row | Structure (SMILES) | AC50 [1] | AC50 [2] | cell number change [%]
20 | CC1CCCN(CCCN2C(=O)C3C(C(=O)Nc4ccc(Cl)cc4)C4C=CC3(O4)C2C(=O)NC2CCCCC2)C1 (configuration not stated) | – | 0.146 µM [falling, full curve, poor fit] | 14.5
21 | COc1cccc(Nc2nc(-c3ccccc3)nc3ccccc23)c1 | – | – | 5.19
22 | Cc1cc(-n2c(C)cc(C(=O)CSc3[nH]c(=O)cc(C(F)(F)F)c3C#N)c2C)no1 | – | 29.1 µM [rising, single point] | -0.518
23 | CCOC(=O)CC(NC(=O)c1cccs1)c1ccc(OCC)cc1 (configuration not stated) | – | 0.00411 µM [falling, full curve, poor fit] | -5.65
24 | Cc1cc(C)n2nc(SCCC(=O)NCc3ccccc3)nc2n1 | 6.51 µM [rising, single point] | – | –
25 | Cc1nnc(SCC(=O)Nc2nccs2)n1C(C)C | – | 6.51 µM [rising, single point] | -19.4
26 | CCOC(=O)c1c(C)n(-c2ccc(C)cc2)c2ccc(OCC(O)CNCC3CCCO3)cc12 (configuration not stated) | 29.1 µM [falling, single point] | 29.1 µM [falling, single point] | -46.8
27 | CC(C)(C)NC(=O)C(c1ccc(Cl)cc1)N(Cc1ccco1)C(=O)CCl (configuration not stated) | – | – | 3.16
28 | Cc1ccc(S(=O)(=O)N(C)C)cc1NC(=O)C(C)NC(C)c1cccs1 (configuration not stated) | – | 29.1 µM [falling, single point] | -0.84
29 | CSCCC(=O)N1CCCC(CNC(=O)c2ccccc2Cl)C1 (configuration not stated) | – | 2.59 µM [falling, partial curve, poor fit] | -10.6
30 | CC(=O)c1ccc(NC(=O)CSc2nnc(C3CC3)n2C)cc1 | – | 0.082 µM [falling, partial curve, poor fit] | –
31 | Cc1ccc(C(=O)Nc2ccc3ccccc3c2)cc1 | – | 23.1 µM [falling, single point] | -22.3
32 | Cc1ccc(C)c(N2CCN(C(=O)CCn3c(=S)[nH]c4cc5c(cc4c3=O)OCO5)CC2)c1 | – | 3.26 µM [rising, partial curve, poor fit] | 20.7
33 | CCN1C(=O)CCC(C(=O)O)C1c1ccc(OC)cc1 (configuration not stated) | 0.731 µM [falling, full curve] | – | -54.2
34 | O=C(COc1ncnc2c(Cl)cc(Cl)cc12)N1CCN(S(=O)(=O)c2ccccc2)CC1 | 4.11 µM [rising, full curve, poor fit] | – | 48.4
35 | COc1cccc(/C=N/Nc2snc(SC)c2C#N)c1O | 18.4 µM [falling, single point] | 16.4 µM [falling, single point] | -36.4
36 | Cc1ccc2c(cnn2C(=O)CCCC(=O)NCc2ccc(Cl)cc2)c1 | – | 32.6 µM [falling, single point] | -21.9
37 | CC(=O)Oc1cccc(/C=N\NC(=O)C(=O)N/N=C/c2cccc(OC(C)=O)c2)c1 | – | 29.1 µM [falling, single point] | -2
